The values below come from publication doi:10.1101/2020.02.05.936237.

Test in all cases: two-hybrid
For assay [1], the target named is T1, BD-myc-Dhr1 (wild type) (S. cerevisiae) (UniProt Q04217).
T1 sequence: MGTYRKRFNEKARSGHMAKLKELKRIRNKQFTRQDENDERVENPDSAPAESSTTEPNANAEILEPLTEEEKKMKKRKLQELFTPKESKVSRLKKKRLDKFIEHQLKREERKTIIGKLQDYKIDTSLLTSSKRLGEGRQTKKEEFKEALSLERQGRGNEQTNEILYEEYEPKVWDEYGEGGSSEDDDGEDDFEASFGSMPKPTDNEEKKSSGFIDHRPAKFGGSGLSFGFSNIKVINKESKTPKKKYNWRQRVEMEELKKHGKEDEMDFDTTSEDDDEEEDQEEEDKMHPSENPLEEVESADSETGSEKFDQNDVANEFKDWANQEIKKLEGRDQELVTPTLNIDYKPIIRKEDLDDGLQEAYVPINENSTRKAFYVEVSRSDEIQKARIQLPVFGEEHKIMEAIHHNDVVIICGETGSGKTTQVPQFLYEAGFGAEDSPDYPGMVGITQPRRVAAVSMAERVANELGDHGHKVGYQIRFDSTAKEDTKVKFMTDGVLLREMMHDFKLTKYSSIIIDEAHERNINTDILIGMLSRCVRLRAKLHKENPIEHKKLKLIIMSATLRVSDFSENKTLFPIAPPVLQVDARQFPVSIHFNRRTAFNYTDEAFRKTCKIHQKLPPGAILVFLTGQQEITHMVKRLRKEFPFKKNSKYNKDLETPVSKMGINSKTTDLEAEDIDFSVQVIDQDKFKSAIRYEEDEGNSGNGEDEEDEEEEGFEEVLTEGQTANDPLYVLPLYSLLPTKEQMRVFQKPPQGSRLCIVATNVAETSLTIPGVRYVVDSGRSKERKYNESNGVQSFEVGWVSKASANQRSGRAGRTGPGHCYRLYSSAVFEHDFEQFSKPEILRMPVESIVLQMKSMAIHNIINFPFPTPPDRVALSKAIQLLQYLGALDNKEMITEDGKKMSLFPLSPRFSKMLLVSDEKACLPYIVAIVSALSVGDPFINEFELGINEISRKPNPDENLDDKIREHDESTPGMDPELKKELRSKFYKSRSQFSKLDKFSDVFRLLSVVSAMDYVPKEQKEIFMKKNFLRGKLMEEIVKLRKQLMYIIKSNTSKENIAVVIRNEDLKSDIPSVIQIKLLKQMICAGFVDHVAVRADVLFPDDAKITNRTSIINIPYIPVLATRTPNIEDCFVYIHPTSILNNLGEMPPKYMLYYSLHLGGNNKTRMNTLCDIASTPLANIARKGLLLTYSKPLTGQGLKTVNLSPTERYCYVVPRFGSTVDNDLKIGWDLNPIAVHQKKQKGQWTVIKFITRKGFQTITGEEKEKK

In assay [2] the target is T2, BD-myc-Imp4 P252L (S. cerevisiae) (UniProt P53941).
T2 sequence: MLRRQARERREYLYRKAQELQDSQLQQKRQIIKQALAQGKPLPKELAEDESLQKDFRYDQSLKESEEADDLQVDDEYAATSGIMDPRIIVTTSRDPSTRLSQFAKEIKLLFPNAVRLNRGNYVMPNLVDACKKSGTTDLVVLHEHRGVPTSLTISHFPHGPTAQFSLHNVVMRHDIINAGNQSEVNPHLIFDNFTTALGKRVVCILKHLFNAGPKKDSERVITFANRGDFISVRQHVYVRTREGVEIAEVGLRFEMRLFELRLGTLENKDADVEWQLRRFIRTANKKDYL

For assay [3], the target named is T3, BD-myc-Imp4 (wild type) (S. cerevisiae) (UniProt P53941).
T3 sequence: T2 sequence with L252P

The target in assay [4] is T4, BD-myc-Imp4 V170F (S. cerevisiae) (UniProt P53941).
T4 sequence: T2 sequence with V170F, L252P

Assay [5] has as its target T3, BD-myc-Imp4 (wild type) (S. cerevisiae). The source holds these as a separate data set.

Residue numbers refer to the chain shown, from its start. In names and notes the source's numbering stands. Where two headings read alike, the source gives them in different places. No constants are given. Whether binding was seen depends on the method and setting. Some entries that bind do so weakly or less than the wild type. Sequences can lack the tags named with a protein.

B1: AD-HA-Utp14 (protein, UniProt Q04500 1-899)
chain: MAKKKSKSRSKSSRRVLDALQLAEREINGEFDNSSDNDKRHDARRNGTVVNLLKRSKGDTNSDEDDIDSESFEDEELNSDEALGSDDDYDILNSKFSQTIRDKKENANYQEEEDEGGYTSIDEEDLMPLSQVWDMDEKTAQSNGNDDEDASPQLKLQDTDISSESSSSEESESESEDDEEEEDPFDEISEDEEDIELNTITSKLIDETKSKAPKRLDTYGSGEANEYVLPSANAASGASGKLSLTDMMNVIDDRQVIENANLLKGKSSTYEVPLPQRIQQRHDRKAAYEISRQEVSKWNDIVQQNRRADHLIFPLNKPTEHNHASAFTRTQDVPQTELQEKVDQVLQESNLANPEKDSKFEELSTAKMTPEEMRKRTTEMRLMRELMFREERKARRLKKIKSKTYRKIKKKELMKNRELAAVSSDEDNEDHDIARAKERMTLKHKTNSKWAKDMIKHGMTNDAETREEMEEMLRQGERLKAKMLDRNSDDEEDGRVQTLSDVENEEKENIDSEALKSKLGKTGVMNMAFMKNGEAREREANKETLRQLRAVENGDDIKLFESDEEETNGENIQINKGRRIYTPGSLESNKDMNELNDHTRKENKVDESRSLENRLRAKNSGQSKNARTNAEGAIIVEEESDGEPLQDGQNNQQDEEAKDVNPWLANESDEEHTVKKQSSKVNVIDKDSSKNVKAMNKMEKAELKQKKKKKGKSNDDEDLLLTADDSTRLKIVDPYGGSDDEQGDNVFMFKQQDVIAEAFAGDDVVAEFQEEKKRVIDDEDDKEVDTTLPGWGEWAGAGSKPKNKKRKFIKKVKGVVNKDKRRDKNLQNVIINEKVNKKNLKYQSSAVPFPFENREQYERSLRMPIGQEWTSRASHQELIKPRIMTKPGQVIDPLKAPFK
Consider B1, for which, in assay [1], the binding result is “binds”.

B2: Utp2-AD-HA (wild-type Utp2 with an HA-tagged GAL4 activating domain fused to its C-terminus) (protein, UniProt Q99207 1-810)
chain: MAGSQLKNLKAALKARGLTGQTNVKSKNKKNSKRQAKEYDREEKKKAIAEIREEFNPFEIKAARNKRRDGLPSKTADRIAVGKPGISKQIGEEQRKRAFEARKMMKNKRGGVIDKRFGERDKLLTEEEKMLERFTRERQSQSKRNANLFNLEDDEDDGDMFGDGLTHLGQSLSLEDELANDEEDFLASKRFNEDDAELQQPQRKKTKAEVMKEVIAKSKFYKQERQKAQGIMEDQIDNLDDNFEDVMSELMMTQPKKNPMEPKTDLDKEYDIKVKELQLDKRAAPSDRTKTEEEKNAEAEEKKRELEQQRLDRMNGMIELEEGEERGVEDLDDGFWENEEDYEDDNDGIADSDDDIKFEDQGRDEGFSQILKKKNISISCPRTHDALLDQVKKLDLDDHPKIVKNIIKAYQPKLAEGNKEKLGKFTAVLLRHIIFLSNQNYLKNVQSFKRTQNALISILKSLSEKYNRELSEECRDYINEMQARYKKNHFDALSNGDLVFFSIIGILFSTSDQYHLVITPALILMSQFLEQIKFNSLKRIAFGAVLVRIVSQYQRISKRYIPEVVYFFQKILLTFIVEKENQEKPLDFENIRLDSYELGLPLDVDFTKKRSTIIPLHTLSTMDTEAHPVDQCVSVLLNVMESLDATISTVWKSLPAFNEIILPIQQLLSAYTSKYSDFEKPRNILNKVEKLTKFTEHIPLALQNHKPVSIPTHAPKYEENFNPDKKSYDPDRTRSEINKMKAQLKKERKFTMKEIRKDAKFEARQRIEEKNKESSDYHAKMAHIVNTINTEEGAEKNKYERERKLRGGKK
In the case of B2, the binding entry is reported as “no binding” in assay [2], “binds” in assay [3], “no binding” in assay [4] and “binds” in assay [5].

B3: Utp2-DPE (A2D, L6P, K7E) as Utp2-AD-HA (protein, UniProt Q99207 1-810)
chain: B2 chain with A2D, L6P, K7E
As to B3, the binding result in assay [5] is “binds”.
